Results on 31 targets are retold here after the supplement of paper PMC10849652.

Amino acid sequences for entries named in this document (tags omitted). A change or cut given only in a name is not applied to a line headed by its entry.
UniProt Q12797: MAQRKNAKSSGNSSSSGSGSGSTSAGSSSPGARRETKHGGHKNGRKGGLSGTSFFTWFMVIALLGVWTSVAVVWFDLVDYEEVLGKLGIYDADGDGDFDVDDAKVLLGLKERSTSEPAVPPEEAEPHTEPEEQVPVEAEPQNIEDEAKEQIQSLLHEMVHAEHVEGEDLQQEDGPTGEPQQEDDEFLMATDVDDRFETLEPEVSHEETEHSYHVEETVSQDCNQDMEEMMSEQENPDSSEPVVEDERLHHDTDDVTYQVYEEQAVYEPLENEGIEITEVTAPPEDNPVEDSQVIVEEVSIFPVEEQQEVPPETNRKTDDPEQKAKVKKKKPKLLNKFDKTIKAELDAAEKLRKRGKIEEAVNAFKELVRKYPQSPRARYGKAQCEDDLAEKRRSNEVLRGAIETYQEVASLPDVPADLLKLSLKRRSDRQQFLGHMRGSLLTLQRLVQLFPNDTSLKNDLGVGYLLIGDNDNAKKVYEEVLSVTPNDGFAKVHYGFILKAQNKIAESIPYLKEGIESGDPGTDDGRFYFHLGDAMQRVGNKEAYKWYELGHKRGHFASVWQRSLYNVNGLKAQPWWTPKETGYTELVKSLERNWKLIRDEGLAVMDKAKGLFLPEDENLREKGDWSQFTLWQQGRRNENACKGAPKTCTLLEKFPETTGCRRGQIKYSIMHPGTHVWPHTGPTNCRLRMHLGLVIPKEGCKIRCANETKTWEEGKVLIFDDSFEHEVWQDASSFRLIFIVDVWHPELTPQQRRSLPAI
UniProt P36404: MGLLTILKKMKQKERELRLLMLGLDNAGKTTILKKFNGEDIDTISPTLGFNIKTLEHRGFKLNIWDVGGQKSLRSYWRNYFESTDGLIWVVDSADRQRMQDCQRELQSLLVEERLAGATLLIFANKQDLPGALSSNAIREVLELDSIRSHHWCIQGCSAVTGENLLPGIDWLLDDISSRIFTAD
UniProt Q9Y689: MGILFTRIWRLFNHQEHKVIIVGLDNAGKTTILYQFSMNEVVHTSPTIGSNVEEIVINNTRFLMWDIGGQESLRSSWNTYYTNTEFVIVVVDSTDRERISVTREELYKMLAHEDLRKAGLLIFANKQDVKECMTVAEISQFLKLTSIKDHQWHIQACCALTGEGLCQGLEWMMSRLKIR
UniProt Q9BSB4: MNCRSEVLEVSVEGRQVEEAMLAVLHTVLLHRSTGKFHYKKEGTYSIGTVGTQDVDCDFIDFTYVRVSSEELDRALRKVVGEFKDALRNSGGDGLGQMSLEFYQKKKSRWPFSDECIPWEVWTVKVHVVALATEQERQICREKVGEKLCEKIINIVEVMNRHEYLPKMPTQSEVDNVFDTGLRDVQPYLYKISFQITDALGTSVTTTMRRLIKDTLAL
UniProt O75348, whole entry, looked up: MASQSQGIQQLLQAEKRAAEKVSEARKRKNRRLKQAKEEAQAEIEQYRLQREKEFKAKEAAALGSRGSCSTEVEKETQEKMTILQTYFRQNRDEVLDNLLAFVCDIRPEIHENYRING
UniProt Q6P4H8: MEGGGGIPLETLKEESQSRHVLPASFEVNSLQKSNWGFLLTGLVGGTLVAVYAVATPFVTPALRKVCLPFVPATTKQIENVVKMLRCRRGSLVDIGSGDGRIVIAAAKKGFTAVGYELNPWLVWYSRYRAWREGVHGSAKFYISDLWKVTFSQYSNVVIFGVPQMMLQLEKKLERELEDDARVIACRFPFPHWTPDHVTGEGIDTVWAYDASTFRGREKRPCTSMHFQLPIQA
UniProt Q9NXU5: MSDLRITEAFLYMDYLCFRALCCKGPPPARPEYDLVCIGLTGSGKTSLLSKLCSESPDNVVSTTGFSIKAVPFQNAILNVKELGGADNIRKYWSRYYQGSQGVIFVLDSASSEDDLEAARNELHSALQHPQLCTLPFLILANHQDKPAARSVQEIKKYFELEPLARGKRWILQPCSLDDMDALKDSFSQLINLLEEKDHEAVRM
UniProt P15848: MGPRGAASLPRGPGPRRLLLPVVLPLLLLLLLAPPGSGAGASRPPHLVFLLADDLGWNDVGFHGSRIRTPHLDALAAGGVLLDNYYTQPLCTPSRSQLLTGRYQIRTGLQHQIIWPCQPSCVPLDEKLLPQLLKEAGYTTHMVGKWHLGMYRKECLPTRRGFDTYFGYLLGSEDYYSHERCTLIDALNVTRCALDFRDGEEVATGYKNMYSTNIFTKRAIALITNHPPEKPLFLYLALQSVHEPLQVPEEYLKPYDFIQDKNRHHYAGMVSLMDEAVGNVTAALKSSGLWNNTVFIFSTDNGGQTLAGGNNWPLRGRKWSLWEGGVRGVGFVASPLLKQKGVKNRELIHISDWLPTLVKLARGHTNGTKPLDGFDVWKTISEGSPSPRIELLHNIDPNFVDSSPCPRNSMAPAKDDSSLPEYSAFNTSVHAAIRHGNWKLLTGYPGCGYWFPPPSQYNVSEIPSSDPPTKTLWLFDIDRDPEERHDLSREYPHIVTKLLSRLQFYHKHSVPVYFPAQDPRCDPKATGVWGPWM
UniProt Q8IXJ9: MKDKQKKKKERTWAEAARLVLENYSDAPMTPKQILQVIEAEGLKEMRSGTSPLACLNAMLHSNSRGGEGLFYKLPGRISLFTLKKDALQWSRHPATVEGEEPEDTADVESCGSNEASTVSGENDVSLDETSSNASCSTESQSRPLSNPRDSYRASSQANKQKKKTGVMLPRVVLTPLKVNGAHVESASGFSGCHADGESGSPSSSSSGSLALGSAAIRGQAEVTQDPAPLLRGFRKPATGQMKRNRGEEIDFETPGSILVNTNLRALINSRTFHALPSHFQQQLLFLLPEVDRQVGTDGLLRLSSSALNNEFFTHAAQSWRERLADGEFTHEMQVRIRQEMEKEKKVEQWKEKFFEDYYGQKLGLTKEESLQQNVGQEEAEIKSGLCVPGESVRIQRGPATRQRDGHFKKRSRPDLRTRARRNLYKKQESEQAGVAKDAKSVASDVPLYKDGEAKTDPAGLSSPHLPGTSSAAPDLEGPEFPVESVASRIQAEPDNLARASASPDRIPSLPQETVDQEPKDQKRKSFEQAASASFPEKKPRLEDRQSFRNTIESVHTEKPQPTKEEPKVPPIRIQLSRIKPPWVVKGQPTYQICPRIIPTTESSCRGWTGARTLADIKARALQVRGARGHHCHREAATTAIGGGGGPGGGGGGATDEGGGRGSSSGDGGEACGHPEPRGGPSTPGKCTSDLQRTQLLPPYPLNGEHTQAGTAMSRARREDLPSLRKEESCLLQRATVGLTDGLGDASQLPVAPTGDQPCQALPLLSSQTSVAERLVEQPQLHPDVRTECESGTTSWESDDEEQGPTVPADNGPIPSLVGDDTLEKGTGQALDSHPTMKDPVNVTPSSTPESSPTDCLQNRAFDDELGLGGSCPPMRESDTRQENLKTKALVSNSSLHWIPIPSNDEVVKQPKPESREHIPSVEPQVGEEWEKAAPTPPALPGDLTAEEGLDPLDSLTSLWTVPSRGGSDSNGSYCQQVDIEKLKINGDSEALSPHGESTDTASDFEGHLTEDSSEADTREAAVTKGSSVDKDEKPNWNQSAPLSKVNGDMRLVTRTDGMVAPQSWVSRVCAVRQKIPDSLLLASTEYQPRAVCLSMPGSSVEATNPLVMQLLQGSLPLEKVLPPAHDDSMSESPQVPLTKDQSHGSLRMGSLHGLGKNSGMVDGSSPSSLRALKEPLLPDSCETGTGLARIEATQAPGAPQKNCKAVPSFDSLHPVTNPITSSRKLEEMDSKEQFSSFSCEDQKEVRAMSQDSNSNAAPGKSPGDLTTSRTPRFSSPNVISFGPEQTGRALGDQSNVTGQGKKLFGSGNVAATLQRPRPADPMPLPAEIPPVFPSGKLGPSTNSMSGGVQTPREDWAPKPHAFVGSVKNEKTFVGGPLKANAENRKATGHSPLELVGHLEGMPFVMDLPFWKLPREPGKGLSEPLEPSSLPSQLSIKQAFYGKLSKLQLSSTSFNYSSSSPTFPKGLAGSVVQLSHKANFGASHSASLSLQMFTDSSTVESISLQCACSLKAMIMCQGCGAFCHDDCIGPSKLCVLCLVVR
UniProt P30049: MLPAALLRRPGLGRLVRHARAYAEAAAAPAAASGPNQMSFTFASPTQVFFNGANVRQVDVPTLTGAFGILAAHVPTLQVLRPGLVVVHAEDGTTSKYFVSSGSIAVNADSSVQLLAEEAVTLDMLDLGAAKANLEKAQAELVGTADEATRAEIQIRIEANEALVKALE
UniProt Q6NXE6: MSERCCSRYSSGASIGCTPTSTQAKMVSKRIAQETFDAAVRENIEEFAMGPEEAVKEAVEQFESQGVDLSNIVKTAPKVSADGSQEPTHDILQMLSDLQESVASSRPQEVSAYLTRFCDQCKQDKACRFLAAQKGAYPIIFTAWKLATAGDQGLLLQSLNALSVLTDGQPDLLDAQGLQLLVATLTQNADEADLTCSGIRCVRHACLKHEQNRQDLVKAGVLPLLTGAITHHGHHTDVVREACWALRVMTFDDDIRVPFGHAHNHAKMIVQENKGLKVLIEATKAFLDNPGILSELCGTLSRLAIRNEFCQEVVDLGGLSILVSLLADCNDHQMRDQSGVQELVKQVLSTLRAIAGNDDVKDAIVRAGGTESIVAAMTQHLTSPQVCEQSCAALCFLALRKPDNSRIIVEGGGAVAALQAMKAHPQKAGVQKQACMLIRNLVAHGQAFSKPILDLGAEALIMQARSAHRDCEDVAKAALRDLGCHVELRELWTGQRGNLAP
UniProt P61421, whole entry, looked up: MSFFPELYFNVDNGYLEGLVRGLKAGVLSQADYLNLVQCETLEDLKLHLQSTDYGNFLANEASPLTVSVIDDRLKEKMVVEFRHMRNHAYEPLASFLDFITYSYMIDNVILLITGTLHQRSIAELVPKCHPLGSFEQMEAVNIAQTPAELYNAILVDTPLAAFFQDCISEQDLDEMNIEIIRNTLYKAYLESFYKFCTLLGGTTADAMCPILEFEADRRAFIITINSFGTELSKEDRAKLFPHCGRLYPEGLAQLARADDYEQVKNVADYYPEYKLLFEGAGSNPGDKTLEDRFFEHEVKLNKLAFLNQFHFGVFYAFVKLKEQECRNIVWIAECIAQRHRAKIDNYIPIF
UniProt Q15041, whole entry, looked up: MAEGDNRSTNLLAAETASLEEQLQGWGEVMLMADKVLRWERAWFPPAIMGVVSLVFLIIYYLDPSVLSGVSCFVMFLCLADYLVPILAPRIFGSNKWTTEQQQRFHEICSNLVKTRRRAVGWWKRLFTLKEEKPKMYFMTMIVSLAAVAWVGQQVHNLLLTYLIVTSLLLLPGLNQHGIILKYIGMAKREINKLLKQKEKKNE
UniProt P54259: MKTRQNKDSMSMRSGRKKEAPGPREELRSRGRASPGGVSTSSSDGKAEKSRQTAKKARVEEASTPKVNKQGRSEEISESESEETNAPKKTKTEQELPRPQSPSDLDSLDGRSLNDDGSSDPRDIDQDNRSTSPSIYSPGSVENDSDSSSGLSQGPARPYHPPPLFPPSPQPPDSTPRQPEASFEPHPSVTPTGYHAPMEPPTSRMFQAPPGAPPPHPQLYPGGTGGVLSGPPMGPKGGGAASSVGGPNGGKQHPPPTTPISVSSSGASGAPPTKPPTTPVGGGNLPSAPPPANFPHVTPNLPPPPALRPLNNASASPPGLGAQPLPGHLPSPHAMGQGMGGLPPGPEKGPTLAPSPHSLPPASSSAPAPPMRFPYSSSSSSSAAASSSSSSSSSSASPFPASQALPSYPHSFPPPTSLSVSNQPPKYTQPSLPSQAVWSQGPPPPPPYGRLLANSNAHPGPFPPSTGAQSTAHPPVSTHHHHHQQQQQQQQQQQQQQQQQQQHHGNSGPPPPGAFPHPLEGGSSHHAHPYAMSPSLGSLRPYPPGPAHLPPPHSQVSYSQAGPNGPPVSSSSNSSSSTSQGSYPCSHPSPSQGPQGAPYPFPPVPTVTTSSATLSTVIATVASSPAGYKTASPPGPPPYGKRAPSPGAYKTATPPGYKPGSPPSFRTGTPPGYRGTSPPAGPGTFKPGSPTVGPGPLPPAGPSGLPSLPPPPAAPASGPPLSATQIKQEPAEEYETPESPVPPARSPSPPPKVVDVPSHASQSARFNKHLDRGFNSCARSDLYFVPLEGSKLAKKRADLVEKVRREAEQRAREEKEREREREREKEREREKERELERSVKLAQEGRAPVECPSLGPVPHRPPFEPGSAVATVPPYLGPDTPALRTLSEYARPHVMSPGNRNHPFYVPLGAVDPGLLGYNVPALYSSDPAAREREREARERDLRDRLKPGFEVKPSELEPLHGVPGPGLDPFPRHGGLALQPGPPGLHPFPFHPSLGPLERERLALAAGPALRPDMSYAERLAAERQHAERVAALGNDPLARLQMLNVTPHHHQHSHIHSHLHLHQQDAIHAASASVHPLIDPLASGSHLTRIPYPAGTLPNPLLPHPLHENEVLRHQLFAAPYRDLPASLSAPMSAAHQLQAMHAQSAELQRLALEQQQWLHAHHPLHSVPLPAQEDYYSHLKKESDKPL
UniProt P18847: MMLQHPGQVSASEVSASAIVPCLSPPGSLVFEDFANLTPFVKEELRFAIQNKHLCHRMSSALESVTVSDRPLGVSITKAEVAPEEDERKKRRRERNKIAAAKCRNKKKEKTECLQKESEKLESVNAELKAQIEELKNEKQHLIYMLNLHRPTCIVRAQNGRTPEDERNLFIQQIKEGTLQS

This is one part of the list.

Compound in this assay: c1cn2cc(-c3ccc4cn[nH]c4c3)nc(Nc3ccc(N4CCOCC4)cc3)c2n1 [entospletinib]
Put plainly: log2 fold change, soluble protein after heating vs DMSO (PISA); higher = thermal stabilisation; K562 cells, 10 uM, 30 min; active = over 0.2 and 3.5 SD of the protein, either way, in both replicates (recomputed). The method in brief:
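Aliquots of K562 cells (2×10^6 cells/mL) treated with 10 μM compound for 30 min were heated for 3 min over 48°C-58°C. After pooling and extraction in PBS with 0.5% NP-40 at 4°C, soluble protein from a 21,000xg, 90 min spin was quantified by TMTpro 16plex LC-MS/MS with channel sums equalised. Thermal stability is expressed against control samples, from duplicates, as a log2 fold change.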
On to ATP6V1D (UniProt Q9Y5K8), for which the log2 fold change is inactive: -0.031.
Consider ASPH (UniProt Q12797), for which the log2 fold change was inactive: -0.004.
For ATP5MF (UniProt P56134), the log2 fold change is inactive: 0.047.
Turning to ATG13 isoform 5 (UniProt O75143), the log2 fold change was inactive: 0.029.
In the case of ATP13A1 (UniProt Q9HD20) it was inactive: 0.004; in that of ARL2 (UniProt P36404), inactive: -0.053; in that of ARL5A (UniProt Q9Y689), inactive: 0.071.
In the case of ATG101 (UniProt Q9BSB4) it was inactive: 0.028.
In the case of ATP6V1G1 (UniProt O75348) it was inactive: -0.009; in that of ATP11C (UniProt Q8NB49), inactive: -0.028.
Take ATPSCKMT (UniProt Q6P4H8): the log2 fold change is inactive: 0.032.
The same measure for ARL15 (UniProt Q9NXU5): inactive: -0.048.
The same measure for ASPM (UniProt Q8IZT6): inactive: 0.057; for ATG7 (UniProt O95352): inactive: -0.01.
ARV1 (UniProt Q9H2C2): the log2 fold change was inactive: -0.001.
In the case of ARSB (UniProt P15848) it was inactive: 0.056; in that of ASXL1 (UniProt Q8IXJ9), inactive: 0.041.
Take ATG2B (UniProt Q96BY7): the log2 fold change is inactive: -0.008.
In the case of ATP5MC2 isoform 2 (UniProt Q06055) it was inactive: -0.084; in that of ATP5F1D (UniProt P30049), inactive: -0.031.
The same measure for ARPC5 (UniProt O15511): inactive: -0.009; for ARMC6 (UniProt Q6NXE6): inactive: 0.175; for ATP1B2 (UniProt P14415): inactive: -0.042.
The same measure for ATE1 isoform 2 (UniProt O95260): inactive: 0.104.
For the target ATP6V0D1 (UniProt P61421), the log2 fold change was inactive: 0.087.
Regarding ATP5PD (UniProt O75947), the log2 fold change was inactive: -0.011.
For the target ARL6IP1 (UniProt Q15041), the log2 fold change is inactive: 0.046.
In the case of ATN1 (UniProt P54259) it was inactive: -0.015; in that of ATP7A isoform 3 (UniProt Q04656), inactive: -0.039; in that of ARPC3 (UniProt O15145), inactive: 0.096.
On to ATF3 (UniProt P18847), for which the log2 fold change was inactive: -0.357.
